This is an account of results in publication PMC9462479.

Amino acid sequences for entries named in this document (tags omitted).
UniProt Q8VBV4: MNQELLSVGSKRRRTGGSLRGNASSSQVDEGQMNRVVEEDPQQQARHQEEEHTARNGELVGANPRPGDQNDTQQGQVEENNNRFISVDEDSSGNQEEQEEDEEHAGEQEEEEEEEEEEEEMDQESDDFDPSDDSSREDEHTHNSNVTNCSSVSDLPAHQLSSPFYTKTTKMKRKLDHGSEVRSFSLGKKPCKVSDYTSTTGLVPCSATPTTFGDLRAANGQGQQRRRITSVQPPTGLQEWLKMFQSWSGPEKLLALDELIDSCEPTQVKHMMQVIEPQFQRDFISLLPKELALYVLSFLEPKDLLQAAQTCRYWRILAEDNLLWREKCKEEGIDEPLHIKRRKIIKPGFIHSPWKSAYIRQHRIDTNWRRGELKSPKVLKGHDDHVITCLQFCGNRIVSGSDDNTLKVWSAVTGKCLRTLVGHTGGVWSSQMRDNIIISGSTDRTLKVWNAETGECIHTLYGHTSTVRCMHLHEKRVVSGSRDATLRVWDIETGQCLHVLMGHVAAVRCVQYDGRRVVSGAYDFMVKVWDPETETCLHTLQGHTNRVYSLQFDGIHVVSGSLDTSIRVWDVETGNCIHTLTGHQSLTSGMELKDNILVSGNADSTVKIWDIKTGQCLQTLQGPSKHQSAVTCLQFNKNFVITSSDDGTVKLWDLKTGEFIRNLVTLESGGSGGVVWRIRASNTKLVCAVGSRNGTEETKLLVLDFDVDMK
UniProt P45481: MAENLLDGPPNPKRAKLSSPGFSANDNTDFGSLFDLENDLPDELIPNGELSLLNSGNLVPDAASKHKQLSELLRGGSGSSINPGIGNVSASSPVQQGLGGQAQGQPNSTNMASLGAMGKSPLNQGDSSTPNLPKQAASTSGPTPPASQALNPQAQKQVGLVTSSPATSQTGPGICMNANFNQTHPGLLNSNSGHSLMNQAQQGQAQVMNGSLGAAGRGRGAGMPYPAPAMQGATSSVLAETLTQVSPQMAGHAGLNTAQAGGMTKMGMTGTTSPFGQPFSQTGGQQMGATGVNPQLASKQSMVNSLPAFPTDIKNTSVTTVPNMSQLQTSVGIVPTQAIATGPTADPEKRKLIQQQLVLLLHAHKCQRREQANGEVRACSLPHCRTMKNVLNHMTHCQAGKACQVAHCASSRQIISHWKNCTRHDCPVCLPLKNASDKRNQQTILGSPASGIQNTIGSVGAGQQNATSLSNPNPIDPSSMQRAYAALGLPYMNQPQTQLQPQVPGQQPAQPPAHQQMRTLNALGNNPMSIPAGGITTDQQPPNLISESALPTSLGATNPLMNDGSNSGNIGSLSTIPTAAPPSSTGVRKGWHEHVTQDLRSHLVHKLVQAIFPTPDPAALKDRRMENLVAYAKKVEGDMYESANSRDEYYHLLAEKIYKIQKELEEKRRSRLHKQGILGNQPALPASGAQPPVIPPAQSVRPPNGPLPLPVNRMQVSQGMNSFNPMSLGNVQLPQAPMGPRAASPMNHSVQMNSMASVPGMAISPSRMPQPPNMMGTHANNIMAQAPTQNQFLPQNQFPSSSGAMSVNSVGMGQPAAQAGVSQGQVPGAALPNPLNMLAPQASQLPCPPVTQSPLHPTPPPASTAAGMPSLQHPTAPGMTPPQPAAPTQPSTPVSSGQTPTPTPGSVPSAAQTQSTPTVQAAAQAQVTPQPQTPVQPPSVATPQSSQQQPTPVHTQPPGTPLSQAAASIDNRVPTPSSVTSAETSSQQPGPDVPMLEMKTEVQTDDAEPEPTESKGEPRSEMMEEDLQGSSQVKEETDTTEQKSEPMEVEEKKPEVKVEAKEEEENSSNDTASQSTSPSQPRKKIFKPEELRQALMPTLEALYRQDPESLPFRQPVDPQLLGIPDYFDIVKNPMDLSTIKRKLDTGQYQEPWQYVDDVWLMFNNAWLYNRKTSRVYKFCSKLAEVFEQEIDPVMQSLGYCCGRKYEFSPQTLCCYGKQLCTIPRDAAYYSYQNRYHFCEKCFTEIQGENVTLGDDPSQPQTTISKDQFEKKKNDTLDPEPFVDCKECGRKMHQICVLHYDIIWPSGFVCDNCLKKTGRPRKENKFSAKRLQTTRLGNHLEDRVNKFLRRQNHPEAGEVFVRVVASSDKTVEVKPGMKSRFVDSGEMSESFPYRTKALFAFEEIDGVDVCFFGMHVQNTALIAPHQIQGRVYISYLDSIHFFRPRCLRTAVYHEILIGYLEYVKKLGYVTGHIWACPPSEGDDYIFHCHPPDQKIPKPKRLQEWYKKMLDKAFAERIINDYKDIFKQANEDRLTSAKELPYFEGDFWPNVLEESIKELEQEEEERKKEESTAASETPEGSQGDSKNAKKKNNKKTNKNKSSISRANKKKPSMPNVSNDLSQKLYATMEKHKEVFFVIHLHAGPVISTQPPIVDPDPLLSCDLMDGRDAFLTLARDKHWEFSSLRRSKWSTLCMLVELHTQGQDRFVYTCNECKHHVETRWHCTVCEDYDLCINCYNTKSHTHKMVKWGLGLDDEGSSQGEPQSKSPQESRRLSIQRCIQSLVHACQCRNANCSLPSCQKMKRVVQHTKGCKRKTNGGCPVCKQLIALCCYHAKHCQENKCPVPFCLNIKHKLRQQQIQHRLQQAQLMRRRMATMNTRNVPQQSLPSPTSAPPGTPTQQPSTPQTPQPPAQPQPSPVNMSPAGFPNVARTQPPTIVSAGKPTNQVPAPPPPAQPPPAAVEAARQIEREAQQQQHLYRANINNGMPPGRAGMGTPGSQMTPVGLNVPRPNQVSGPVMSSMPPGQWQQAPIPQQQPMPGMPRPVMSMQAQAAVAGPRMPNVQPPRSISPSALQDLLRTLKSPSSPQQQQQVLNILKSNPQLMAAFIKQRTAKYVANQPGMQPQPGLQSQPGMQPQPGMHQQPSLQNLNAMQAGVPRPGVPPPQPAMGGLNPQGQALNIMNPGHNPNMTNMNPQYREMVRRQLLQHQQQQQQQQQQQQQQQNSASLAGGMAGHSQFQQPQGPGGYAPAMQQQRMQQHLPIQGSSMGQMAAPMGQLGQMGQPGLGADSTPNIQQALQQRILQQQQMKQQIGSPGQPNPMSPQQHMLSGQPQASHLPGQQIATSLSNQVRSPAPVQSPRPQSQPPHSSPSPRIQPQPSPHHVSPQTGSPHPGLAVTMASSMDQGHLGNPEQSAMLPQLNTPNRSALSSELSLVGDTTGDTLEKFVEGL

The test deals with T1, FLAG-SREBF1(N), N-terminus of mouse SREBF1, expressed in 3T3-L1–TetON-FLAG-Srebf1(N) adipocytes (mouse) (UniProt Q9WTN3).
T1 sequence: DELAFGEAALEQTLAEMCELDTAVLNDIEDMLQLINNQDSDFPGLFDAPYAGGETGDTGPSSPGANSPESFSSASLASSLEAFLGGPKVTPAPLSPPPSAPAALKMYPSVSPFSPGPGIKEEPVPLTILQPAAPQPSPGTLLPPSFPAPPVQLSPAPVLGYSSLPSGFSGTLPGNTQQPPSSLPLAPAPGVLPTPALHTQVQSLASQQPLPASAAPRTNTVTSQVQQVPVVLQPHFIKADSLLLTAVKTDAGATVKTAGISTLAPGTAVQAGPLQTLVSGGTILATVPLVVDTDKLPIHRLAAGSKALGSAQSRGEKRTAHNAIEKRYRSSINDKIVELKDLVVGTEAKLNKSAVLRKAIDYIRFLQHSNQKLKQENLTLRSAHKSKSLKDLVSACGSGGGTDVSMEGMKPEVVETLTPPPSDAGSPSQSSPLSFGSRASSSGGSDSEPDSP
Nature of the test: affinity purification with mass spectrometry; FLAG-tagged bait immunoprecipitated with anti-FLAG M2 Affinity Gel from dialysed nuclear extracts (150 mM KCl, 0.05% NP40) of differentiated 3T3-L1 TetON cells treated with 10 μg/mL doxycycline; eluted with FLAG peptide; LC-MS/MS.

Results are given in words; binding and its absence hold for the method and conditions named. Binding seen in cells or lysates may run through a third protein. A yes stands for co-enrichment or nearness to the bait. Other partners may have been found. Where a sequence is shown, tags or fusion partners need not be part of it.

Regarding “FBXW7, endogenous in 3T3-L1 adipocytes (from UniProt Q8VBV4 1-710)”, the binding result is on record as “binds”.

Take “CREBBP, endogenous in 3T3-L1 adipocytes (from UniProt P45481 1-2441)”: the binding result is “binds”.
